# Measurements reported in PubChem BioAssay AID1259308 (NCATS, 2017)
# Screen: 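Genes whose loss raises luciferase production in HEK293 cells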 (primary screen)
# Cell system: human HEK293 embryonic kidney cells stably expressing firefly luciferase (HEK-CMV-Luc2-Hygro)
# Reagent: single siRNA against human genes, 0.8 pmol siRNA per well
# Time to read-out: 72 h
# Measured: 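Reporter luminescence and viable-cell signal on separate replicate plates, given as percent of non-targeting control and median/MAD z-scores, plus per-cell luciferase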
# Scale: total luciferase, z-score and total luciferase, % of control: higher = more reporter protein produced; luciferase per cell, z-score: higher = more reporter output per viable cell
# Call rule: 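Active when the median/MAD z-score for overall luciferase is greater than 3; a gene was taken forward for validation with new siRNAs if at least two of its three siRNAs passed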
# Meaning of the calls: active = raised luciferase; inactive = no rise
# The whole screen tested about 59,000 reagents; this is a random part of them. About 1,510 of all reagents (2.6%) count as active. 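Calls use total luciferase alone and ignore viability, so some active siRNAs may act by altering cell number.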 Reagents against one gene are numbered here. Further read-outs or replicates are left out here. No sequences are given here.
gene,reagent no.,"total luciferase, z-score","total luciferase, % of control","luciferase per cell, z-score",call
HTRA1 (HtrA serine peptidase 1),1,0.662,95.1,-0.32,inactive
HTRA1 (HtrA serine peptidase 1),2,1.46,111,1.2,inactive
HTRA1 (HtrA serine peptidase 1),3,-0.3,75.9,-0.785,inactive
RHBDF1 (rhomboid 5 homolog 1),1,-0.337,75.2,0.0999,inactive
RHBDF1 (rhomboid 5 homolog 1),2,-0.58,70.4,0.124,inactive
RHBDF1 (rhomboid 5 homolog 1),3,1.05,103,0.807,inactive
CCNL1 (cyclin L1),1,2.27,127,1.4,inactive
CCNL1 (cyclin L1),2,-1.01,61.8,-0.17,inactive
CCNL1 (cyclin L1),3,-0.232,77.3,-0.139,inactive
DDX27 (DEAD-box helicase 27),1,-0.7,68,0.0922,inactive
DDX27 (DEAD-box helicase 27),2,-1.02,61.5,-0.4,inactive
DDX27 (DEAD-box helicase 27),3,0.147,84.8,0.294,inactive
FBN3 (fibrillin 3),1,1.4,110,1.29,inactive
FBN3 (fibrillin 3),2,-0.608,69.8,-0.797,inactive
FBN3 (fibrillin 3),3,0.619,94.2,2.1,inactive
"RAB5CP2 (RAB5C, member RAS oncogene family pseudogene 2)",1,0.758,97,0.335,inactive
"RAB5CP2 (RAB5C, member RAS oncogene family pseudogene 2)",2,-0.0831,80.2,0.474,inactive
"RAB5CP2 (RAB5C, member RAS oncogene family pseudogene 2)",3,2.21,126,2.42,inactive
FHL1 (four and a half LIM domains 1),1,1.1,104,0.74,inactive
FHL1 (four and a half LIM domains 1),2,-1.55,51,-1.03,inactive
FHL1 (four and a half LIM domains 1),3,1.36,109,0.292,inactive
"PIP4P2 (phosphatidylinositol-4,5-bisphosphate 4-phosphatase 2)",1,1.23,106,0.978,inactive
"PIP4P2 (phosphatidylinositol-4,5-bisphosphate 4-phosphatase 2)",2,0.48,91.4,0.993,inactive
"PIP4P2 (phosphatidylinositol-4,5-bisphosphate 4-phosphatase 2)",3,1.82,118,2.31,inactive
IL3RA (interleukin 3 receptor subunit alpha),1,-1.57,50.7,-1.16,inactive
IL3RA (interleukin 3 receptor subunit alpha),2,0.0023,81.9,0.297,inactive
IL3RA (interleukin 3 receptor subunit alpha),3,-0.193,78.1,0.123,inactive
SAE1 (SUMO1 activating enzyme subunit 1),1,-0.402,73.9,-0.0601,inactive
SAE1 (SUMO1 activating enzyme subunit 1),2,0.529,92.4,-0.0173,inactive
SAE1 (SUMO1 activating enzyme subunit 1),3,2.43,130,1.97,inactive
HULC (hepatocellular carcinoma up-regulated long non-coding RNA),1,-0.0456,81,-0.198,inactive
HULC (hepatocellular carcinoma up-regulated long non-coding RNA),2,-1.17,58.6,-0.485,inactive
HULC (hepatocellular carcinoma up-regulated long non-coding RNA),3,-1.3,56,-1.49,inactive
CHRNA6 (cholinergic receptor nicotinic alpha 6 subunit),1,0.499,91.8,0.552,inactive
CHRNA6 (cholinergic receptor nicotinic alpha 6 subunit),2,-0.512,71.7,-0.674,inactive
CHRNA6 (cholinergic receptor nicotinic alpha 6 subunit),3,-0.839,65.2,-1.56,inactive

9 successive entries from above:
gene,reagent no.,"total luciferase, z-score","total luciferase, % of control","luciferase per cell, z-score",call
FBN3 (fibrillin 3),2,-0.608,69.8,-0.797,inactive
FBN3 (fibrillin 3),3,0.619,94.2,2.1,inactive
"RAB5CP2 (RAB5C, member RAS oncogene family pseudogene 2)",1,0.758,97,0.335,inactive
"RAB5CP2 (RAB5C, member RAS oncogene family pseudogene 2)",2,-0.0831,80.2,0.474,inactive
"RAB5CP2 (RAB5C, member RAS oncogene family pseudogene 2)",3,2.21,126,2.42,inactive
FHL1 (four and a half LIM domains 1),1,1.1,104,0.74,inactive
FHL1 (four and a half LIM domains 1),2,-1.55,51,-1.03,inactive
FHL1 (four and a half LIM domains 1),3,1.36,109,0.292,inactive
"PIP4P2 (phosphatidylinositol-4,5-bisphosphate 4-phosphatase 2)",1,1.23,106,0.978,inactive

Next records:
gene,reagent no.,"total luciferase, z-score","total luciferase, % of control","luciferase per cell, z-score",call
TMX2 (thioredoxin related transmembrane protein 2),1,-0.324,75.4,0.383,inactive
TMX2 (thioredoxin related transmembrane protein 2),2,-1.88,44.6,1.23,inactive
TMX2 (thioredoxin related transmembrane protein 2),3,0.16,85.1,-0.0901,inactive
TRIM14 (tripartite motif containing 14),1,3.42,150,2.6,active
TRIM14 (tripartite motif containing 14),2,0.133,84.5,-0.244,inactive
TRIM14 (tripartite motif containing 14),3,-0.0632,80.6,-0.0692,inactive
PLEKHG6 (pleckstrin homology and RhoGEF domain containing G6),1,-1,62,-0.339,inactive
PLEKHG6 (pleckstrin homology and RhoGEF domain containing G6),2,2.35,129,1.97,inactive
PLEKHG6 (pleckstrin homology and RhoGEF domain containing G6),3,1.47,111,0.947,inactive
LPCAT2 (lysophosphatidylcholine acyltransferase 2),1,-0.00409,81.8,-0.307,inactive
LPCAT2 (lysophosphatidylcholine acyltransferase 2),2,1.86,119,1.91,inactive
LPCAT2 (lysophosphatidylcholine acyltransferase 2),3,-0.808,65.8,-0.556,inactive
PTPN3 (protein tyrosine phosphatase non-receptor type 3),1,-0.192,78.1,-0.244,inactive
PTPN3 (protein tyrosine phosphatase non-receptor type 3),2,0.803,97.9,0.318,inactive
PTPN3 (protein tyrosine phosphatase non-receptor type 3),3,0.0176,82.2,-0.285,inactive
ANKRD34C (ankyrin repeat domain 34C),1,-0.789,66.2,-0.563,inactive
ANKRD34C (ankyrin repeat domain 34C),2,0.0184,82.3,1.09,inactive
ANKRD34C (ankyrin repeat domain 34C),3,-0.183,78.2,0.764,inactive
HPS5 (HPS5 biogenesis of lysosomal organelles complex 2 subunit 2),1,-0.365,74.6,-0.22,inactive
HPS5 (HPS5 biogenesis of lysosomal organelles complex 2 subunit 2),2,0.438,90.6,0.17,inactive
HPS5 (HPS5 biogenesis of lysosomal organelles complex 2 subunit 2),3,-0.774,66.5,-0.934,inactive
ZNF585A (zinc finger protein 585A),1,0.382,89.5,0.67,inactive
ZNF585A (zinc finger protein 585A),2,0.067,83.2,-0.348,inactive
ZNF585A (zinc finger protein 585A),3,-0.926,63.5,-1.19,inactive
LYPD5 (LY6/PLAUR domain containing 5),1,-0.0614,80.7,-0.0443,inactive
LYPD5 (LY6/PLAUR domain containing 5),2,-2.68,28.6,-2.57,inactive
LYPD5 (LY6/PLAUR domain containing 5),3,2.49,131,1.83,inactive
CC2D2B (coiled-coil and C2 domain containing 2B),1,1.24,107,0.864,inactive
CC2D2B (coiled-coil and C2 domain containing 2B),2,0.513,92.1,1.26,inactive
CC2D2B (coiled-coil and C2 domain containing 2B),3,2.08,123,1.09,inactive
DISC1 (DISC1 scaffold protein),1,2.19,126,0.902,inactive
DISC1 (DISC1 scaffold protein),2,1.15,105,1.02,inactive
DISC1 (DISC1 scaffold protein),3,0.0904,83.7,-0.243,inactive
TGIF2LX (TGFB induced factor homeobox 2 like X-linked),1,0.987,102,0.19,inactive
TGIF2LX (TGFB induced factor homeobox 2 like X-linked),2,0.239,86.6,0.42,inactive
TGIF2LX (TGFB induced factor homeobox 2 like X-linked),3,0.0645,83.2,1.7,inactive
YEATS2 (YEATS domain containing 2),1,0.862,99,0.51,inactive
YEATS2 (YEATS domain containing 2),2,-0.167,78.6,-0.685,inactive
YEATS2 (YEATS domain containing 2),3,-0.565,70.6,-1.22,inactive
